Record: PubChem BioAssay AID1259308 (NCATS, 2017)

Assay: 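Genes whose loss raises luciferase production in HEK293 cells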 (primary screen)
Cells: human HEK293 embryonic kidney cells stably expressing firefly luciferase (HEK-CMV-Luc2-Hygro)
Knock-down reagent: single siRNA against human genes, 0.8 pmol siRNA per well
Time to read-out: 72 h
Read-out: 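Reporter luminescence and viable-cell signal on separate replicate plates, given as percent of non-targeting control and median/MAD z-scores, plus per-cell luciferase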
Direction: total luciferase, z-score: higher = more reporter protein produced
Call rule: 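Active when the median/MAD z-score for overall luciferase is greater than 3; a gene was taken forward for validation with new siRNAs if at least two of its three siRNAs passed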
Meaning of the calls: active = raised luciferase; inactive = no rise
This is a random part of about 59,000 reagents. About 1,510 of them (2.6%) count as active. 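Calls use total luciferase alone and ignore viability, so some active siRNAs may act by altering cell number.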 Reagents against one gene are numbered here. Further read-outs or replicates are left out here.

Knock-down of ZC3H7A (zinc finger CCCH-type containing 7A) #1 gave: total luciferase, z-score 1.5; inactive.
ZC3H7A (zinc finger CCCH-type containing 7A) #2 showed total luciferase, z-score 1.28; inactive.
For ZC3H7A (zinc finger CCCH-type containing 7A) #3, the entry reads total luciferase, z-score -0.423; inactive.
Against SVIL (supervillin) #1 the deposit lists total luciferase, z-score 0.282; inactive.
SVIL (supervillin) #2 gave total luciferase, z-score 0.101; inactive.
SVIL (supervillin) #3 gave total luciferase, z-score 1.22; inactive.
Knock-down of BIRC2 (baculoviral IAP repeat containing 2) #1 came out at: total luciferase, z-score 3.22; active.
Depletion of BIRC2 (baculoviral IAP repeat containing 2) #2 gave: total luciferase, z-score 0.707; inactive.
Silencing of BIRC2 (baculoviral IAP repeat containing 2) #3 gave: total luciferase, z-score -0.91; inactive.
LAX1 (lymphocyte transmembrane adaptor 1) #1 gave total luciferase, z-score -0.435; inactive.
With knock-down of LAX1 (lymphocyte transmembrane adaptor 1) #2 the results were total luciferase, z-score -0.562; inactive.
Against LAX1 (lymphocyte transmembrane adaptor 1) #3 the deposit lists total luciferase, z-score -0.418; inactive.
For ZNF584 (zinc finger protein 584) #1, the values are total luciferase, z-score -0.899; inactive.
ZNF584 (zinc finger protein 584) #2 scored total luciferase, z-score 0.968; inactive.
ZNF584 (zinc finger protein 584) #3 scored total luciferase, z-score 1.5; inactive.
With knock-down of PRG2 (proteoglycan 2, pro eosinophil major basic protein) #1 the results were total luciferase, z-score -0.283; inactive.
Knock-down of PRG2 (proteoglycan 2, pro eosinophil major basic protein) #2 came out at: total luciferase, z-score 0.452; inactive.
After knock-down of PRG2 (proteoglycan 2, pro eosinophil major basic protein) #3, the screen gave total luciferase, z-score 1.8; inactive.
Silencing of BMI1 (BMI1 proto-oncogene, polycomb ring finger) #1 resulted in: total luciferase, z-score -0.502; inactive.
Depletion of BMI1 (BMI1 proto-oncogene, polycomb ring finger) #2 resulted in: total luciferase, z-score 0.594; inactive.
After knock-down of BMI1 (BMI1 proto-oncogene, polycomb ring finger) #3, the record shows total luciferase, z-score -0.282; inactive.
With knock-down of THAP10 (THAP domain containing 10) #1, the record shows total luciferase, z-score 0.0616; inactive.
THAP10 (THAP domain containing 10) #2 scored total luciferase, z-score -0.512; inactive.
After knock-down of THAP10 (THAP domain containing 10) #3 the results were total luciferase, z-score -0.339; inactive.
Knock-down of SLC16A10 #1 gave: total luciferase, z-score -0.0611; inactive.
After knock-down of SLC16A10 #2, the record shows total luciferase, z-score 0.546; inactive.
Against SLC16A10 #3 the deposit lists total luciferase, z-score 1.22; inactive.
Knock-down of LDHA (lactate dehydrogenase A) #1 resulted in: total luciferase, z-score -0.461; inactive.
LDHA (lactate dehydrogenase A) #2 scored total luciferase, z-score -1.4; inactive.
Silencing of LDHA (lactate dehydrogenase A) #3 gave: total luciferase, z-score -0.278; inactive.
ZNF800 (zinc finger protein 800) #1 gave total luciferase, z-score -0.855; inactive.
Silencing of ZNF800 (zinc finger protein 800) #2 gave: total luciferase, z-score -2.61; inactive.
Depletion of ZNF800 (zinc finger protein 800) #3 came out at: total luciferase, z-score 0.848; inactive.

Reagents above called active:
BIRC2 (baculoviral IAP repeat containing 2) #1 | total luciferase, z-score: 3.22; call: active
